Results deposited as PubChem BioAssay AID652243 (Drosophila RNAi Screening Center, 2013)

- Purpose: 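Knock-downs that decrease or increase androgen receptor reporter signal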 (primary screen)
- System: Drosophila S2R+ cells
- Reagents: long dsRNA against Drosophila genes
- Time to read-out: 72 h (48 h, then 24 h hormone)
- Treatment: synthetic androgen R1881 at 10 nM for 24 h
- Measured: 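Firefly light from an androgen-responsive reporter and Renilla control light per well, raw and unnormalised, for each of two replicates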
- Direction: firefly reporter light: higher = more light from androgen-responsive reporter; Renilla control light: higher = more constitutive control signal (cell number, transfection)
- Call rule: 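Across duplicate plates, a knock-down whose log firefly/Renilla ratio shifted a set fold down or up from the GFP/LacZ control mean was a hit; the downward cut appears as both 1.5 and 3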
- Calls: active = hit: reporter lowered or raised; inactive = no hit
The deposit covers about 24,000 reagents; below is an unselected part of those that have a named target and a result. Of all reagents, 246 (1%) were called active. 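Plates not normalised; calls are printed but the firefly/Renilla ratio behind them is not deposited; fold cut for lowering reported inconsistently.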 Raw values vary from plate to plate and are shown uncorrected. The numbers tell different reagents against one gene apart. Reagent sequences are not shown. Not given: the amount of reagent.

Against CysRS #1, the entry reads firefly reporter light, replicate 1 = 3.30e5; firefly reporter light, replicate 2 = 4.68e5; Renilla control light, replicate 1 = 2.33e6; Renilla control light, replicate 2 = 3.08e6; inactive.
Depletion of CysRS #2 gave: firefly reporter light, replicate 1 = 2.29e5; firefly reporter light, replicate 2 = 1.82e5; Renilla control light, replicate 1 = 5.14e5; Renilla control light, replicate 2 = 5.18e5; inactive.
Past1 scored firefly reporter light, replicate 1 = 42962; firefly reporter light, replicate 2 = 84259; Renilla control light, replicate 1 = 1.26e6; Renilla control light, replicate 2 = 1.43e6; inactive.
Silencing of CG3604 came out at: firefly reporter light, replicate 1 = 1.30e5; firefly reporter light, replicate 2 = 81266; Renilla control light, replicate 1 = 9.59e5; Renilla control light, replicate 2 = 7.39e5; inactive.
After knock-down of eEF1gamma #1, the record shows firefly reporter light, replicate 1 = 90532; firefly reporter light, replicate 2 = 60134; Renilla control light, replicate 1 = 1.45e6; Renilla control light, replicate 2 = 1.89e6; inactive.
For eEF1gamma #2, the values are firefly reporter light, replicate 1 = 4.91e5; firefly reporter light, replicate 2 = 3.82e5; Renilla control light, replicate 1 = 4.07e5; Renilla control light, replicate 2 = 4.63e5; inactive.
Against CG15395 the deposit lists firefly reporter light, replicate 1 = 80478; firefly reporter light, replicate 2 = 89502; Renilla control light, replicate 1 = 5.75e5; Renilla control light, replicate 2 = 6.94e5; inactive.
Against Ppat-Dpck the deposit lists firefly reporter light, replicate 1 = 53845; firefly reporter light, replicate 2 = 66671; Renilla control light, replicate 1 = 9.15e5; Renilla control light, replicate 2 = 1.16e6; inactive.
Against CG32669, the entry reads firefly reporter light, replicate 1 = 1.36e6; firefly reporter light, replicate 2 = 7.89e5; Renilla control light, replicate 1 = 2.06e6; Renilla control light, replicate 2 = 9.85e5; inactive.
Silencing of cGlr2 resulted in: firefly reporter light, replicate 1 = 1.16e5; firefly reporter light, replicate 2 = 1.62e5; Renilla control light, replicate 1 = 2.58e5; Renilla control light, replicate 2 = 3.25e5; inactive.
With knock-down of Mdr49 #1, the record shows firefly reporter light, replicate 1 = 9.16e5; firefly reporter light, replicate 2 = 1.17e6; Renilla control light, replicate 1 = 2.00e6; Renilla control light, replicate 2 = 1.90e6; inactive.
With knock-down of Mdr49 #2 the results were firefly reporter light, replicate 1 = 4.78e5; firefly reporter light, replicate 2 = 3.32e5; Renilla control light, replicate 1 = 3.94e5; Renilla control light, replicate 2 = 3.98e5; inactive.
Silencing of trh #1 resulted in: firefly reporter light, replicate 1 = 91400; firefly reporter light, replicate 2 = 1.64e5; Renilla control light, replicate 1 = 1.76e6; Renilla control light, replicate 2 = 2.19e6; inactive.
After knock-down of trh #2, the screen gave firefly reporter light, replicate 1 = 96938; firefly reporter light, replicate 2 = 1.31e5; Renilla control light, replicate 1 = 1.59e6; Renilla control light, replicate 2 = 2.02e6; inactive.
Depletion of trh #3 came out at: firefly reporter light, replicate 1 = 1.04e6; firefly reporter light, replicate 2 = 9.49e5; Renilla control light, replicate 1 = 1.20e6; Renilla control light, replicate 2 = 1.08e6; inactive.
Knock-down of Pex16 came out at: firefly reporter light, replicate 1 = 44340; firefly reporter light, replicate 2 = 98885; Renilla control light, replicate 1 = 3.81e5; Renilla control light, replicate 2 = 4.86e5; inactive.
Against CG34384 #1, the values are firefly reporter light, replicate 1 = 3.98e5; firefly reporter light, replicate 2 = 5.92e5; Renilla control light, replicate 1 = 2.91e6; Renilla control light, replicate 2 = 3.12e6; inactive.
With knock-down of CG34384 #2, the screen gave firefly reporter light, replicate 1 = 90555; firefly reporter light, replicate 2 = 74273; Renilla control light, replicate 1 = 2.13e6; Renilla control light, replicate 2 = 1.75e6; inactive.
For CG34384 #3, the values are firefly reporter light, replicate 1 = 1.39e5; firefly reporter light, replicate 2 = 92487; Renilla control light, replicate 1 = 2.94e6; Renilla control light, replicate 2 = 1.68e6; inactive.
Depletion of CG34384 #4 came out at: firefly reporter light, replicate 1 = 82399; firefly reporter light, replicate 2 = 98913; Renilla control light, replicate 1 = 1.79e6; Renilla control light, replicate 2 = 1.98e6; inactive.
Silencing of CG34384 #5 gave: inactive.

Reformatted: 3 of the entries above
{"gene":"Pex16","dsRNA no.":1,"firefly reporter light, replicate 1":44340,"firefly reporter light, replicate 2":98885,"Renilla control light, replicate 1":3.81e5,"Renilla control light, replicate 2":4.86e5,"outcome":"inactive"}
{"gene":"CG34384","dsRNA no.":1,"firefly reporter light, replicate 1":3.98e5,"firefly reporter light, replicate 2":5.92e5,"Renilla control light, replicate 1":2.91e6,"Renilla control light, replicate 2":3.12e6,"outcome":"inactive"}
{"gene":"CG34384","dsRNA no.":2,"firefly reporter light, replicate 1":90555,"firefly reporter light, replicate 2":74273,"Renilla control light, replicate 1":2.13e6,"Renilla control light, replicate 2":1.75e6,"outcome":"inactive"}
